In the supplement of paper PMC8551327:
Structures can show the parent of a compound that is named as a salt. The list shows a part of the results. Cut-off read from the data, not from the text of the source: active = 1.25 or more and inactive = the rest. Most values come without repeats; read them as rough.

System: Kcc2-LUC knock-in mouse primary cortical neurons (Kcc2 promoter reporter)
Assay: Kcc2 promoter-driven luciferase activity relative to vehicle control (fold of vehicle (ratio)); higher = stronger Kcc2 promoter activation (Kcc2 expression enhancer)
Details: 100 nM; 48 h

Row | SMILES | Kcc2 promoter-driven luciferase activity
1 | CCOC(=O)/N=C(\N)SCc1ccccc1 | inactive: 0.41
2 | COc1cc2c(c(OC)c1OC)-c1c(cc3c(c1OC)OCO3)C[C@H](C)[C@](C)(O)[C@H]2OC(=O)c1ccccc1 [Gomisin C] | inactive: 1.09
3 | Cc1cc(=O)[nH]c(NN2C(Cl)C(=O)C2c2cccc([N+](=O)[O-])c2)n1 (stereo not drawn) | inactive: 1.18
4 | COc1cc2cc3c4cc(OC)c(OC)cc4cc[n+]3c(C)c2cc1OC.O=C(O)CS(=O)(=O)[O-] [Coralyne sulfoacetate, ; Monoanhydride with sulfuric acid] | inactive: 0.666
5 | COC1=C(N)C(=O)c2nc(-c3nc(C(=O)O)c(C)c(-c4ccc(OC)c(OC)c4O)c3N)ccc2C1=O [Streptonigrin] | inactive: 0.06
6 | CCCCCCCCCc1c(Cl)nc(Cl)nc1Cl [2,4,6-Trichloro-5-nonylpyrimidine] | inactive: 1.07
7 | CCN(CC)CCCC(C)Nc1ccnc(/C=C/c2ccc(Cl)cc2)c1 (stereo not drawn) [Pyridine, (E)-] | active: 1.27
8 | COC(=O)C1=CO[C@@H](C)[C@@H]2CN3CCc4c([nH]c5cc(OC)c(OC)cc45)[C@H]3C[C@H]12 [Reserpiline Oxalate] | inactive: 0.925
9 | CNc1nc(N(C)C)nc(N(C)C)n1 [Pentamethylmelamine Hydrochloride] | inactive: 0.97
10 | CC1=C(O)c2ccccc2C(=O)C1=O [Phthiocol] | inactive: 0.79
11 | CCN(CC)CCOC(=O)Cc1cccc2c(=O)cc(-c3ccccc3)oc12 [Mitoflaxone 2-(diethylamino)ethyl ester hydrochloride] | inactive: 1
12 | NCCCNCCCCNCCCN [Spermine Hydrochloride] | inactive: 0.76
13 | Cc1cc2nc(C=C(C(F)(F)F)C(F)(F)F)oc2cc1C | inactive: 1.07
14 | Cc1ccc2ccc3ccc(C)nc3c2n1 [Neocuproine] | inactive: 0.94
15 | Clc1ccc(-c2c(C3=NCCCN3)nnn2-c2ccc(Cl)cc2)cc1 | inactive: 0.47
16 | CN=c1sc2c(n1C)C(=O)c1ccccc1C2=O [3-methyl-2-methyliminobenzo[f][1,3]benzothiazole-4,9-dione] | inactive: 0.38
17 | COC1CC(C)C(OC)c2cc(O)cc(c2O)NC(=O)/C(C)=C/C=C\C(C)C(OC(N)=O)/C(C)=C/C(C)C1OC (stereo not drawn) [Macbecin II] | inactive: 1.04
18 | Nc1nncs1 [2-Amino-1,3,4-thiadiazole] | active: 1.27
19 | COC(=O)C12OC[C@]34[C@H]([C@@H](O)[C@@H]1O)[C@@]1(C)C=C(OC5OC(CO)C(O)C(O)C5O)C(=O)[C@@H](C)[C@@H]1C[C@H]3OC(=O)[C@H](OC(=O)/C=C(\C)C(C)C)[C@@H]24 (stereo partly drawn) [Bruceantoside A] | inactive: 0.78
20 | Cc1ccc(NC(=O)c2cccc([N+](=O)[O-])c2O)c([N+](=O)[O-])c1 [2-Hydroxy-N-(4-methyl-2-nitrophenyl)-3-nitrobenzamide] | inactive: 1.2
21 | COC(=O)NC1C(C)OC(OC2C/C=C(/C)C3C=CC4C(OC5CC(OC6CC(O)C(OC7CC(O)C(OC)C(C)O7)C(C)O6)C(O)C(C)O5)C(C)CC(C)C4C3(C)/C(O)=C3\C(=O)OC4(CC(C)C(CO)=CC4/C=C\2C)C3=O)CC1(C)[N+](=O)[O-] (stereo not drawn) [Kijanimicin Deriv] | inactive: 1.09
22 | C=C(C#N)C(=O)OCC(CC)CC.C=C(C#N)C(=O)OCC(CC)CC.CS(C)=O.CS(C)=O.Nc1c(N=Nc2ccc(-c3ccc(N=Nc4cc(S(=O)(=O)[O-])c5ccccc5c4N)cc3)cc2)cc(S(=O)(=O)[O-])c2ccccc12.[Pt+2] | inactive: 1.16
23 | CC(C)CCCC(=O)CCCCCCC(=O)CCN(O)C(=O)[C@@H](N)CO [Lipoxamycin] | inactive: 0.26
24 | COC(=O)c1cc(-c2c[nH]cc2C(=O)OCc2ccccc2)cn1S(=O)(=O)c1ccc(C)cc1 | inactive: 0.48
25 | OC[C@H]1O[C@@H](n2cnc3c(SCc4ccccc4)ncnc32)[C@H](O)[C@@H]1O [6-Benzylthioinosine] | inactive: 0.98
26 | COc1ccc(OC)c(-c2cc(=O)c3c(OC)c(OC)c(OC)c(OC)c3o2)c1 [2',5',5,6,7,8-Hexamethoxyflavone] | inactive: 0.41
27 | COc1cc(/C=C/C(=O)CC(=O)/C=C/c2ccc(O)c(OC)c2)ccc1O [Curcumin] | inactive: 1.09
28 | O=C(O)c1ccc(N[C@H](c2ccccc2)c2ccc3cccnc3c2O)cc1 | inactive: 1

Another view of two compounds above.
Row	SMILES	Kcc2 promoter-driven luciferase activity
20	Cc1ccc(NC(=O)c2cccc([N+](=O)[O-])c2O)c([N+](=O)[O-])c1 [2-Hydroxy-N-(4-methyl-2-nitrophenyl)-3-nitrobenzamide]	inactive: 1.2
23	CC(C)CCCC(=O)CCCCCCC(=O)CCN(O)C(=O)[C@@H](N)CO [Lipoxamycin]	inactive: 0.26
